Reference: article PMC3228830, “Targeted Proteolysis of Plectin Isoform 1a Accounts for Hemidesmosome Dysfunction in Mice Mimicking the Dominant Skin Blistering Disease EBS-Ogna” (PLoS Genetics, 2011)
Results are given in words; binding and its absence hold for the method and conditions named. Some binding calls cover weakened binding; strength is not graded here.

By UniProt entry, the sequences of proteins in these tests, tags left out.
UniProt P30427: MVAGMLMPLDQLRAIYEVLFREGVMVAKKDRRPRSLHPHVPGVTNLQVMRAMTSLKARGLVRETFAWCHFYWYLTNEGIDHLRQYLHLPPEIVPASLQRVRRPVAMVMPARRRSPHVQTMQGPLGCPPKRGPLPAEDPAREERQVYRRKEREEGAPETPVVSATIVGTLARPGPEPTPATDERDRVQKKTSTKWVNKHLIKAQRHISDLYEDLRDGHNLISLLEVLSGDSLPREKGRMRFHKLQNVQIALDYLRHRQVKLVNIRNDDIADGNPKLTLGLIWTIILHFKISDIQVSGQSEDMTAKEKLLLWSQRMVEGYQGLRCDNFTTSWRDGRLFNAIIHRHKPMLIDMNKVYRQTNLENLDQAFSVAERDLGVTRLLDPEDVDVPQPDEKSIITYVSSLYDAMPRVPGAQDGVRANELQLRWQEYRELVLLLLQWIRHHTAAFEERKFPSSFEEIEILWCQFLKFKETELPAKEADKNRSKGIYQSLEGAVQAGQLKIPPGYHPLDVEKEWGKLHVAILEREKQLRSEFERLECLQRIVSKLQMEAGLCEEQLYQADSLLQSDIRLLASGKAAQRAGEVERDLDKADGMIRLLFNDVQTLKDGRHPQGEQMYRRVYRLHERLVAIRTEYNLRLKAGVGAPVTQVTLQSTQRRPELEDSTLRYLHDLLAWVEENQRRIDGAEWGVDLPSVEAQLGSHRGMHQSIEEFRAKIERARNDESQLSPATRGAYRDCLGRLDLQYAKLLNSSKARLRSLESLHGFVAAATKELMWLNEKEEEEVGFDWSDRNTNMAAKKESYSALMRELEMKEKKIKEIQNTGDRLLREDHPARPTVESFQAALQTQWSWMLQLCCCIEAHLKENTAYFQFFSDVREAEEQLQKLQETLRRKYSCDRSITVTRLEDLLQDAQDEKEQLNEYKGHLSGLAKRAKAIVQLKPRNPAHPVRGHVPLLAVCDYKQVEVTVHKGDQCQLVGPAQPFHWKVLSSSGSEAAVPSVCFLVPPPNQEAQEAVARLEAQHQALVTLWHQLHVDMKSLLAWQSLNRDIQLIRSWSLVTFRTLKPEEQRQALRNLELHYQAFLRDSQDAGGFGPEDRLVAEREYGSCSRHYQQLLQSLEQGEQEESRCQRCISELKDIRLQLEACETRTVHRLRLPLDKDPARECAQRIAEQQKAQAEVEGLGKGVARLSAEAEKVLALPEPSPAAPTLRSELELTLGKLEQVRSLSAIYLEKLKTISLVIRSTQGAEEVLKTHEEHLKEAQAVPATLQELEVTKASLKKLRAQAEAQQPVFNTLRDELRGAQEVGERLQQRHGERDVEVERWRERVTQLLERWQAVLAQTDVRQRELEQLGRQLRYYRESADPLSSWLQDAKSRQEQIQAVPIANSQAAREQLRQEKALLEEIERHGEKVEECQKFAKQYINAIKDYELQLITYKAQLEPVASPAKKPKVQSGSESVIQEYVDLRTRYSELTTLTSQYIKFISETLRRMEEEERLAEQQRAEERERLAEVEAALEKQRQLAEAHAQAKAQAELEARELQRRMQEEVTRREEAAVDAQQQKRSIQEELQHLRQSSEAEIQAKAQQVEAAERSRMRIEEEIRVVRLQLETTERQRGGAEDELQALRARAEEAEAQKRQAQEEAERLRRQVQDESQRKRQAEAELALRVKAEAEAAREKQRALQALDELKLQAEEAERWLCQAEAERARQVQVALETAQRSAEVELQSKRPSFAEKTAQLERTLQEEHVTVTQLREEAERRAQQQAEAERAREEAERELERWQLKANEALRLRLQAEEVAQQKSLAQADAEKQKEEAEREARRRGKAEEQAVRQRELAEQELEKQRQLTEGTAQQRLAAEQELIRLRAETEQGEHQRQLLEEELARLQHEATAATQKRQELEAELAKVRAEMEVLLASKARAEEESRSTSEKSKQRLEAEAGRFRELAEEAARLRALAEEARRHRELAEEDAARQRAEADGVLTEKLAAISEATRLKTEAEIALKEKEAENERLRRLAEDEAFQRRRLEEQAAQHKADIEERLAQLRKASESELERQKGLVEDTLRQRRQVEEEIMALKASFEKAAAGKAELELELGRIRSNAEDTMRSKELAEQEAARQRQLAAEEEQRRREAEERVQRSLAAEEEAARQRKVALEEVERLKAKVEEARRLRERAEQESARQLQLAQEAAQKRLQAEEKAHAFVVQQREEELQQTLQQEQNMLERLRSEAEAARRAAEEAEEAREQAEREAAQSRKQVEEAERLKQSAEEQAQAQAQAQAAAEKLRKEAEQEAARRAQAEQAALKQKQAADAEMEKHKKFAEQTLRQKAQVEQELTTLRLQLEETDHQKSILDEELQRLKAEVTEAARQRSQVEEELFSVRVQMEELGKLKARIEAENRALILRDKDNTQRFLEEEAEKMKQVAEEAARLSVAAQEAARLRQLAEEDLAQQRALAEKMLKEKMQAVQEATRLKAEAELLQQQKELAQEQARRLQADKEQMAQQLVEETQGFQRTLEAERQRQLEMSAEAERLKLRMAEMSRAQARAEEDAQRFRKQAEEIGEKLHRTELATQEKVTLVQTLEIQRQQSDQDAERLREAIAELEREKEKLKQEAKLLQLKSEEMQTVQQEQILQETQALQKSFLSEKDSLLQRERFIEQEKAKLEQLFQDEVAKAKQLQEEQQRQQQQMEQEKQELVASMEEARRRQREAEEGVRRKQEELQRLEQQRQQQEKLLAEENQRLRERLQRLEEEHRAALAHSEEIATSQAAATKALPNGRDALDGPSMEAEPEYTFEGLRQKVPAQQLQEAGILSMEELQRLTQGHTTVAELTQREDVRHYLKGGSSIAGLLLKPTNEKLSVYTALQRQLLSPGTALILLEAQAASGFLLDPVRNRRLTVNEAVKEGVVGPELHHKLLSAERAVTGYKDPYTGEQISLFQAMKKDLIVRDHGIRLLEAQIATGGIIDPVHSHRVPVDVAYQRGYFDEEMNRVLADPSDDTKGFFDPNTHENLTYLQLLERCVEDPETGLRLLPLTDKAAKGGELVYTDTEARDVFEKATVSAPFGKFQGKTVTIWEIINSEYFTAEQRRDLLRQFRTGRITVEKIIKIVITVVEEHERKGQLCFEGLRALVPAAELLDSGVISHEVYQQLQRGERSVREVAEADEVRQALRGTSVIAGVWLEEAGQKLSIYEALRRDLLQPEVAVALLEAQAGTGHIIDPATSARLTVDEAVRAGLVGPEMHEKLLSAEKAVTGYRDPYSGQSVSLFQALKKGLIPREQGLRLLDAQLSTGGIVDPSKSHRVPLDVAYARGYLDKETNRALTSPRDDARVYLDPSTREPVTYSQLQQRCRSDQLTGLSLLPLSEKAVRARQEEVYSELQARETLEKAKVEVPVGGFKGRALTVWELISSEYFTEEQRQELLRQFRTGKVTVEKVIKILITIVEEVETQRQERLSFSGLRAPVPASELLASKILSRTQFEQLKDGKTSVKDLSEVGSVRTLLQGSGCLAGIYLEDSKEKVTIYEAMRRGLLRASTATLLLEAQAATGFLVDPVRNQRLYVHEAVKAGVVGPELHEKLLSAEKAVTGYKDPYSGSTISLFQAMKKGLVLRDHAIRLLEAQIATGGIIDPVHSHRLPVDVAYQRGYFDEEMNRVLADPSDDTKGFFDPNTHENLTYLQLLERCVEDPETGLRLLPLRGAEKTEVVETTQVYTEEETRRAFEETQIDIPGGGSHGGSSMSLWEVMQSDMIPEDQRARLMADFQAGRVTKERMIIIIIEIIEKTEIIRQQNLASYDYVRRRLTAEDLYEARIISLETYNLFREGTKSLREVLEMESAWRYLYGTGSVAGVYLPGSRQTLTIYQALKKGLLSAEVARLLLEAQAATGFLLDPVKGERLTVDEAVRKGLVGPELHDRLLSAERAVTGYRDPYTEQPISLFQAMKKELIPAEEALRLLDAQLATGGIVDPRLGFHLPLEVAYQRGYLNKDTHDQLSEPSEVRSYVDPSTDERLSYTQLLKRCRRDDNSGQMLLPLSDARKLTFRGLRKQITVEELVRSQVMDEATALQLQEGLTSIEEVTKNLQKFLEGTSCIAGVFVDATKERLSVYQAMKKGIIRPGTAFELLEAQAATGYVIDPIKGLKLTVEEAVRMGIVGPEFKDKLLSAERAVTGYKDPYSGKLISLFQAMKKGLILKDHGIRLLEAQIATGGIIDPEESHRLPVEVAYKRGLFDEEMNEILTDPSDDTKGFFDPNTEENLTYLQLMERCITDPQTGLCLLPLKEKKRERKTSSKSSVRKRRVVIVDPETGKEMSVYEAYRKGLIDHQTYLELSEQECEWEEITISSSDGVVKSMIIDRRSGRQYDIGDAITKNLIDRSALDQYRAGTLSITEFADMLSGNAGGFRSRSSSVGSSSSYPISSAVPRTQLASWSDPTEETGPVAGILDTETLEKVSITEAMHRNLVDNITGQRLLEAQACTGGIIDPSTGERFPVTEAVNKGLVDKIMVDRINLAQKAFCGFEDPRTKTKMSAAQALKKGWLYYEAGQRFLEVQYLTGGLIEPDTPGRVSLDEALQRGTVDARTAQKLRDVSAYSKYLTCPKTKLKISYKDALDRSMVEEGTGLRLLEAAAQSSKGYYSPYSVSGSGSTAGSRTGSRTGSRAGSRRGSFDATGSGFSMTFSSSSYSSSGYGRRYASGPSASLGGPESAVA

Key:
[1] = biological target: full-length plectin purified from an epithelial (804G) cell line (not stated (endogenous in 804G cells)) (UniProt P30427); test: negative-staining electron microscopy; full-length plectin purified from 804G cells; data not shown; both purified
[2] = biological target: native full-length plectin purified from rat glioma C6 cells (rat (endogenous in glioma C6 cells)) (UniProt P30427); test: negative-staining electron microscopy; plectin in 7 M urea dialysed into 2 mM Tris-HCl, pH 8.0, 5 mM beta-mercaptoethanol, 3 mM PMSF at 4°C overnight, then 10 mM CaCl2 at 37°C for 1 hour; both purified

binding [1] | binding [2] | Substance
binds |  | full-length plectin purified from an epithelial (804G) cell line (from UniProt P30427 1-4687)
 | binds | native full-length plectin purified from rat glioma C6 cells (from UniProt P30427 1-4687)
